These are yes or no findings as the source states them, for the method shown. For some assays here: In cells and extracts the contact can be indirect. Some results given as binding are weak or reduced against the parent protein; the word gives no strength. For some assays here: Tags and fused reporters may be left off the sequences shown.
How the values were obtained:
[1] = biological target: T1, IFNAR1-IC domain fused to the Gal4 DNA binding domain (pGBT10-IFNAR1-IC) (human) (UniProt P04386+P17181); experiment: yeast two-hybrid
[2] = biological target: T1, IFNAR1-IC domain fused to the Gal4 DNA binding domain (pGBT10-IFNAR1-IC) (human); experiment: yeast two-hybrid in SFY526, X-gal staining positive
[3] = biological target: intact IFNAR1 from human cells (IFNAR1 chain of the type I interferon receptor) (human) (UniProt P17181); experiment: co-immunoprecipitation with anti-IFNAR1 mAb R3 on protein G beads
[4] = biological target: intact IFNAR1 from human cells (IFNAR1 chain of the type I interferon receptor) (human) (UniProt P17181); experiment: co-immunoprecipitation of labeled flag-IR1B4 with IFNAR1 from U266S detergent extracts by mAb IFNaR3
[5] = biological target: T2, GST-IFNAR1-IC fusion protein (Glutathione S-transferase fused to the 100 amino acid long IFNAR1-IC domain) (human) (UniProt P17181); experiment: GST pull-down
T2 sequence (looked up): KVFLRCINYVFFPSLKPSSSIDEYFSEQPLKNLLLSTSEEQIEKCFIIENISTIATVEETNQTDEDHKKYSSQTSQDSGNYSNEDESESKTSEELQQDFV

The chains behind the UniProt entries cited, without tags or fusion partners. Where a name states a change or a piece, a line headed by the entry shows the natural chain unless it says otherwise.
UniProt Q99873: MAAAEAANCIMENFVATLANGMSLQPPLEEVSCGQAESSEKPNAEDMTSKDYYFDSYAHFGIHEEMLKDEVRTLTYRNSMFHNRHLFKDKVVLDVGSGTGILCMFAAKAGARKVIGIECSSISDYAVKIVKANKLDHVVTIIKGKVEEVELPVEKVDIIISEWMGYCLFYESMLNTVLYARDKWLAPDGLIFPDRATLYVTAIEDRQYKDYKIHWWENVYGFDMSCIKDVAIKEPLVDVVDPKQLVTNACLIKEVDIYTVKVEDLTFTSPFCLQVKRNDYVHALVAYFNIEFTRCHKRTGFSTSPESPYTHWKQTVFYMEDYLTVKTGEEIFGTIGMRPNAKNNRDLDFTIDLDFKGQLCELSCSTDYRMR

[6] = biological target: intact IFNAR1 from human cells (IFNAR1 chain of the type I interferon receptor) (human) (UniProt P17181); experiment: co-immunoprecipitation of labeled flag-IR1B4 with IFNAR1 from U266S extracts by Ab 631
[7] = biological target: intact IFNAR1 from human cells (IFNAR1 chain of the type I interferon receptor) (human) (UniProt P17181); experiment: co-immunoprecipitation with anti-flag from transfected Cos-7 cells
[8] = biological target: T2, GST-IFNAR1-IC fusion protein (Glutathione S-transferase fused to the 100 amino acid long IFNAR1-IC domain) (human); experiment: GST pull-down on glutathione beads, SDS-PAGE, Phosphor-Imager

Measured: binding

IR1B4 fused to the Gal4 activation domain (pACT clone IR1B4) (from UniProt Q99873 11-371)
binds: [1] | [2]

flag-IR1B4 (IR1B4 protein with a flag tag, translated in vitro in rabbit reticulocyte lysate, [35S]methionine labeled) (from UniProt Q99873 11-371)
not listed: [1] | [2]
binds: all other assays above
